Data on five compounds can be found in patent US12665203B2, “Organo-metallic analytes for nonaqueous redox flow batteries” (The Regents of the University of California, priority 2020, dated 2026).

The conditions of series [1]: symmetric NRFB, two electrons per side, cited from earlier work.
Series [2] can be described thus: Charging/discharging, symmetric NRFB H-cell, glass frit separator. As to conditions: for Coulombic efficiency: 100 cycles, 450 h. The method, then: Complex 2b was tested in both symmetric and asymmetric NRFB configurations and in both cases, an anion exchange membrane (AEM), and a glass frit as separator between the working electrode and counter electrode compartments were trialed. […] A current of 0.2 mA for the charge and 0.2 mA for the discharge were chosen as described below. Two consecutive plateaus are observed for each charging and discharging process, indicative of two electron transfer processes (FIGS. 12A-B and 13).
The first plateau at −0.97 V is determined by the oxidation of 2b^− to 2b in the cathodic compartment, and the concurrent reduction of 2b^− to 2b^2− in the anodic compartment. The second plateau at −0.21 V is determined by the oxidation of 2b to 2b^+ in the cathodic compartment, with concurrent reduction of 2b^2− to 2b^3− in the anodic compartment. Upon discharge, the reduction of 2b^+ to 2b and 2b to 2b^− in the cathodic compartment results in a small potential drop, with discharging plateaus of −0.98 and −0.24 V, respectively.
Charge-discharge studies were performed inside of a glovebox under an inert atmosphere using a CH Instruments Electrochemical Analyzer Model 1400. The custom H-cell was designed by Adams and Chittenden (FIGS. 21A-B and 22) with compartments separated by an AMI-7001S Anion exchange membrane (Membrane International Inc.) or glass frit. If a membrane was used, it was soaked in 0.5 M nBu4NBF4MeCN electrolyte solution for 48 h prior to use. […] In the asymmetric studies, the counter compartment contained only 3.5 mL 0.5 M nBu4NBF4MeCN electrolyte solution, and an isomolded graphite rod counter electrode. For the studies with a symmetric NRFB configuration, the first cycle was a galvanostatic charging of a concentrated solution of 2b to 2b^− (compounds shown in FIG. 2); 3.5 mL 0.5 M nBu4NBF4MeCN electrolyte solution was charged to the counter compartment, and 3.5 mL 15 mM 2b in 0.5 M nBu4NBF4MeCN electrolyte solution was charged to the working compartment. A 0.2 mA current was applied to the working compartment until a potential cut-off of −0.6 V was reached (approximately 2 hours). The electrolyte solution in the counter compartment was then discarded and 1.75 mL of the 15 mM 2b^− was charged to the counter compartment and both compartments were diluted to reach 3.5 mL of 7.5 mM 2b^−. […] Between experiments, the electrodes were soaked and sonicated with 1M HCl, followed by distilled water twice, then acetone. They were then dried at 100° C. for two hours prior to use.
Determination of 70% state of charge (SOC). Theoretical capacity of the cell=0.0215 mmol×96,485.33 sA/mol=2.07 sA=0.576 mAh 70% state of charge=0.403 mAh Galvanostatic charging current for 2 h at 70% SOC: 0.403 mAh/2 h=0.201 mA Galvanostatic discharging current for 2 h at 70% SOC: 0.403 mAh/2 h=0.201 mA where jp is the current density in A/cm^2, ne is the number of electrons (here ne=1), D0 is the diffusion coefficient (cm^2/s), C0 is the bulk concentration (mol/mL) and v is the scan rate (V/s). Straight lines fit to these plots indicate that the electron transfer events can be considered reversible.

A short description of series [3]: Charging/discharging, asymmetric H-cell, anion exchange membrane separator. The method, then: Complex 2b was also tested as an analyte in an asymmetric cell configuration because this allowed us to achieve a cell design where up to four electrons are stored during each charge and discharge cycle. Using an AEM as separator, potentials and currents were initially chosen to maximize the energy density of the cell: storing 4 electrons in the battery. Over 10 cycles and 45 h, a Coulombic efficiency of 98% was observed (FIGS. 17A-C). […] An asymmetric cell with 2b functioning as a four-electron analyte could be revisited as AEM technology is refined.
Charge-discharge studies were performed inside of a glovebox under an inert atmosphere using a CH Instruments Electrochemical Analyzer Model 1400. The custom H-cell was designed by Adams and Chittenden (FIGS. 21A-B and 22) with compartments separated by an AMI-7001S Anion exchange membrane (Membrane International Inc.) or glass frit. If a membrane was used, it was soaked in 0.5 M nBu4NBF4MeCN electrolyte solution for 48 h prior to use. […] In the asymmetric studies, the counter compartment contained only 3.5 mL 0.5 M nBu4NBF4MeCN electrolyte solution, and an isomolded graphite rod counter electrode. […]

A short description of series [4]: Charging/discharging, asymmetric H-cell, glass frit separator. Particulars: 21 h.

Where two headings read alike, the source gives them in different places.

As to `COCCOCCOCCNc1ccc(NCCOCCOCCOC)c2c1C(=O)c1ccccc1C2=O` [(Me-TEG)2DAAQ], the Vcell in series [1] (solvent DME) is listed as 2.7 V.
As for `C1=Cc2nc1c(-c1ccccc1)c1ccc([nH]1)c(-c1ccccc1)c1nc(c(-c3ccccc3)c3ccc([nH]3)c2-c2ccccc2)C=C1` [H2TPP], the Vcell in series [1] (solvent CH2Cl2) is listed as 2.8 V.
Regarding [(I2P^−)2Al][OTf] [2b], in series [2] (symmetric cell, glass frit), the “discharging plateau (first listed)” value is recorded as −0.98 V. In series [2] (symmetric cell, glass frit), the “discharging plateau (second listed)” value was −0.24 V. In addition, the first charging plateau in series [2] (symmetric cell, glass frit) is reported as −0.97 V. Further, the second charging plateau in series [2] (symmetric cell, glass frit) is listed as −0.21 V. The Coulombic efficiency result is listed as “over 97%” in series [2] (symmetric cell, glass frit, 70% state of charge); 97% in series [2] (symmetric cell, glass frit, 70% state of charge, listed as [(I2P^−)2Al]^+); 96% in series [3] (asymmetric NRFB configuration, up to four electrons stored, multiple cycles, separator not stated); 98% in series [3] (asymmetric cell, AEM, storing 4 electrons, 10 cycles, 45 h); 93% in series [4] (n=2, Vcell=1.6 V); 87% in series [4] (n=3, Vcell=1.9 V). For the same compound, the Coulombic efficiency in series [4] (n=4, Vcell=2.1 V) amounted to 98%. Also, the overall energy efficiency in series [2] (symmetric cell, glass frit, steady decline over 25 cycles) was in the range of 90 to 70%. Moreover, in series [2] (symmetric nonaqueous RFB configuration, 70% state of charge), the “cycles over which charging and discharging remain stable” value is listed as “over 100 cycles”.
Take [bpy(COOMe)2]3Cr: in series [1] (solvent MeCN), the Vcell was 1.8 V.
Consider phthalocyanine Mn-nitride [PcMnN], for which the Vcell in series [1] (solvent MeCN) is 2.2 V.
